This is a selection; strong and weak results do not stand in their true shares. Single values of this set are uncertain.

Protein sequences, listed by entry. Tags and fused reporters are not part of them. Lines headed by an entry give the natural chain unless they say otherwise; changes in a name come on top.
UniProt P11142, whole entry, looked up: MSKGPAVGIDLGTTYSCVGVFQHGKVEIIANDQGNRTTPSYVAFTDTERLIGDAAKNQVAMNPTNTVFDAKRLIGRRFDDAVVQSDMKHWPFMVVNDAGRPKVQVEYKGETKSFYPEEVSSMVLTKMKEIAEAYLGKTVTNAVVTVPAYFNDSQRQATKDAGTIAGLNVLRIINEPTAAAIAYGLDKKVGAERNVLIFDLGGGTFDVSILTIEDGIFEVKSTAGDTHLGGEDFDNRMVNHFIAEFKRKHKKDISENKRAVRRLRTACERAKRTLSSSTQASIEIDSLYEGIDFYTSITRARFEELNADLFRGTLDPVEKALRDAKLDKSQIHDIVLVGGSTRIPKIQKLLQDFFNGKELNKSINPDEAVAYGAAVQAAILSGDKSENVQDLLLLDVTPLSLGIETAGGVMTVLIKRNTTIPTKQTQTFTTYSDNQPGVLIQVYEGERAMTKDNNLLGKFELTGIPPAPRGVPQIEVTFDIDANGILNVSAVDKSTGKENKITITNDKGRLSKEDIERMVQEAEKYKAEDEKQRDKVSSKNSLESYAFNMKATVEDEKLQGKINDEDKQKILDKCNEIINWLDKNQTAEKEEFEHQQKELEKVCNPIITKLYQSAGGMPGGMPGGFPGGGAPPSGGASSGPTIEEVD
UniProt P0DMV8, whole entry, looked up: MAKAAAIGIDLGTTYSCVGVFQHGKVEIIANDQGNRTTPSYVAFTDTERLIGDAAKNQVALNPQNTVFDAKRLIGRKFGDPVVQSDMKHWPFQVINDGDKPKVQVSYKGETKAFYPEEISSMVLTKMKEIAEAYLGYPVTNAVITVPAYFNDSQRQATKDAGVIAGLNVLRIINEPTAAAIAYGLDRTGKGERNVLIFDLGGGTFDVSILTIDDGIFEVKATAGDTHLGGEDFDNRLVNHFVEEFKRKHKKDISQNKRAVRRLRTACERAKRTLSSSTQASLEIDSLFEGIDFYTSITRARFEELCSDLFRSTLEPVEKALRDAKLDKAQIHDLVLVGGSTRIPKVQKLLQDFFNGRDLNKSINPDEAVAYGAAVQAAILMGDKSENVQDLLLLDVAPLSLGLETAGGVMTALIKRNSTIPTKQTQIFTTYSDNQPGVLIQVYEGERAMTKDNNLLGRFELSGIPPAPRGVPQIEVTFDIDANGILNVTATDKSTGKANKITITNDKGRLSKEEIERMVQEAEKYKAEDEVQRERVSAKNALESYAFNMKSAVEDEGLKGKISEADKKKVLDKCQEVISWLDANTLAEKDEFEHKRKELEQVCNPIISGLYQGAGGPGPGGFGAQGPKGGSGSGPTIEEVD
UniProt P13056: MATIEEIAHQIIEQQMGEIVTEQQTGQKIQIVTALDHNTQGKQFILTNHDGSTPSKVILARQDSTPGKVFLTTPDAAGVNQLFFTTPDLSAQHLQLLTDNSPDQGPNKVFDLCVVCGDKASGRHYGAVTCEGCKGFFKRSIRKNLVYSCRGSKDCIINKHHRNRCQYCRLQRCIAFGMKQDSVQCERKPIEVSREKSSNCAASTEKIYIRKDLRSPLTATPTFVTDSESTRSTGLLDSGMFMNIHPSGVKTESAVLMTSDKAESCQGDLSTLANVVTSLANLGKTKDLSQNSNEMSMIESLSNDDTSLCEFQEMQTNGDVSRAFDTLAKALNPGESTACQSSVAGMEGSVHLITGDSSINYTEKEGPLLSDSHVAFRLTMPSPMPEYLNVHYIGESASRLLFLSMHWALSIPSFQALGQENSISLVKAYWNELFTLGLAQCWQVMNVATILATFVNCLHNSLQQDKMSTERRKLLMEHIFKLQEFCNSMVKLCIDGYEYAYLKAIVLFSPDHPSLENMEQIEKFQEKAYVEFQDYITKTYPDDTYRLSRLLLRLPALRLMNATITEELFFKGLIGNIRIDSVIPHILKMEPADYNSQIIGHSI
UniProt P16152: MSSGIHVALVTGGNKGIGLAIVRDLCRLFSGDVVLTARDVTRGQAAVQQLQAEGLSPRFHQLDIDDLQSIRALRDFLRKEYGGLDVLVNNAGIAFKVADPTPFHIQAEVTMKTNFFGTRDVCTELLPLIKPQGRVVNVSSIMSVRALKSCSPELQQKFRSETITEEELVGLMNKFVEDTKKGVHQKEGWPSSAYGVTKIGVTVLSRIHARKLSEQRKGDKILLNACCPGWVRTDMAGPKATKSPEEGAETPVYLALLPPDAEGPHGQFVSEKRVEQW
UniProt P09543: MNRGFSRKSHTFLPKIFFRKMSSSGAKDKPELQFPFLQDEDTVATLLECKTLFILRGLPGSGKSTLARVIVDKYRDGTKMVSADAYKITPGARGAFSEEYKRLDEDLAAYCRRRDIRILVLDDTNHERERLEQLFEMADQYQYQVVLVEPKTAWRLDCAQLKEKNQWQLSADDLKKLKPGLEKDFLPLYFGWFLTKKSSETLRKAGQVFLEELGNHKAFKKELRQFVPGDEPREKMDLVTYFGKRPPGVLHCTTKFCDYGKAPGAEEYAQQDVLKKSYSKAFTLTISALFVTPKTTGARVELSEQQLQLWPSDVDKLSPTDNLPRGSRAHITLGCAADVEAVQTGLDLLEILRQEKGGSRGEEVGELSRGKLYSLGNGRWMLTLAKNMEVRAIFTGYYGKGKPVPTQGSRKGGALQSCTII
UniProt P15170, whole entry, looked up: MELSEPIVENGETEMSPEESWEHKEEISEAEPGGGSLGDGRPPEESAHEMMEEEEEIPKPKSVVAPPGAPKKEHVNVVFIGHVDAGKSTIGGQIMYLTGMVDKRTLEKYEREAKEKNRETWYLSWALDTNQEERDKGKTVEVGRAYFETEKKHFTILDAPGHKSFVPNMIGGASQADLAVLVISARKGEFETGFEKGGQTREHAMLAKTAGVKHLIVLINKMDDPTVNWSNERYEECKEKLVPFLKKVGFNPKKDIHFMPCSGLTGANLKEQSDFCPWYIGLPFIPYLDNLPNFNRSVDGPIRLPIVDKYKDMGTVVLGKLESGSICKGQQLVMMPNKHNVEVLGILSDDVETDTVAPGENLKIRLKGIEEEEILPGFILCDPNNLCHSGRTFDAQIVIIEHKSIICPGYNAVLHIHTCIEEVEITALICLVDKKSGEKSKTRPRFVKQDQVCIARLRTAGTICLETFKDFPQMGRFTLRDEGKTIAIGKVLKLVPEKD
UniProt P09211: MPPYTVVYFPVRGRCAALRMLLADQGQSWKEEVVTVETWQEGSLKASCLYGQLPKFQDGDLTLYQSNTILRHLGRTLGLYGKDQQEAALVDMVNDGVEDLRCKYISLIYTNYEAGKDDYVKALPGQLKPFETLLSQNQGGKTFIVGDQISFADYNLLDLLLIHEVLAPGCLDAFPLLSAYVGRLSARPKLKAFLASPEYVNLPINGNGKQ
UniProt P14314: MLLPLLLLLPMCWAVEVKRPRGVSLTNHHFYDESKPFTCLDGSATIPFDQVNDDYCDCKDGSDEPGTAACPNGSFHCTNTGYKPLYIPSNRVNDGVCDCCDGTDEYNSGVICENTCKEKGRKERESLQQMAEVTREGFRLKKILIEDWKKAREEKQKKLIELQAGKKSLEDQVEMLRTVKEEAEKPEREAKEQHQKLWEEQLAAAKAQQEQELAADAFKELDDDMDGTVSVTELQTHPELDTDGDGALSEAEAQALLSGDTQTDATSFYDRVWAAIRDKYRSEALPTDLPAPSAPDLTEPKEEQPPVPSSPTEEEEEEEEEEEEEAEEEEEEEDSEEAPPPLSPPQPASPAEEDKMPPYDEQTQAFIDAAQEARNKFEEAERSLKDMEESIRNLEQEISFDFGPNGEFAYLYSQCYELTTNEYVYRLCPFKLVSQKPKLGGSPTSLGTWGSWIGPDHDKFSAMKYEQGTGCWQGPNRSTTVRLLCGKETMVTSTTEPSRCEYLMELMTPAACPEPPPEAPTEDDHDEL
UniProt P14866: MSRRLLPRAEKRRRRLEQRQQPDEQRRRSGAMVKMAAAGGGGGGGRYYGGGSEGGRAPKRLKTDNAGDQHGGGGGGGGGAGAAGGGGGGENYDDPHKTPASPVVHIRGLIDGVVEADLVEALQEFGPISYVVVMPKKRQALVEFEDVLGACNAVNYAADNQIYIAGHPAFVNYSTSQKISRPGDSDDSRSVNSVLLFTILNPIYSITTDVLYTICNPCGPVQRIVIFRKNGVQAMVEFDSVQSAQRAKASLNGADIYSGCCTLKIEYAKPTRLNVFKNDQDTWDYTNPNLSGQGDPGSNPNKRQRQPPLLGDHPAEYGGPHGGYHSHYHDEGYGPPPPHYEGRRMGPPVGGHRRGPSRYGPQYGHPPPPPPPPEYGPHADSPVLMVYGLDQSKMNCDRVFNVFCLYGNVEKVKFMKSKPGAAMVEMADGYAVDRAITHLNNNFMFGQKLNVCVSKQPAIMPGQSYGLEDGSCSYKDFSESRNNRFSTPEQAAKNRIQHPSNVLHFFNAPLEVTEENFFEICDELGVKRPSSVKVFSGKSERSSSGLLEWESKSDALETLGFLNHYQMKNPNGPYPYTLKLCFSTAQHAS
UniProt P10155: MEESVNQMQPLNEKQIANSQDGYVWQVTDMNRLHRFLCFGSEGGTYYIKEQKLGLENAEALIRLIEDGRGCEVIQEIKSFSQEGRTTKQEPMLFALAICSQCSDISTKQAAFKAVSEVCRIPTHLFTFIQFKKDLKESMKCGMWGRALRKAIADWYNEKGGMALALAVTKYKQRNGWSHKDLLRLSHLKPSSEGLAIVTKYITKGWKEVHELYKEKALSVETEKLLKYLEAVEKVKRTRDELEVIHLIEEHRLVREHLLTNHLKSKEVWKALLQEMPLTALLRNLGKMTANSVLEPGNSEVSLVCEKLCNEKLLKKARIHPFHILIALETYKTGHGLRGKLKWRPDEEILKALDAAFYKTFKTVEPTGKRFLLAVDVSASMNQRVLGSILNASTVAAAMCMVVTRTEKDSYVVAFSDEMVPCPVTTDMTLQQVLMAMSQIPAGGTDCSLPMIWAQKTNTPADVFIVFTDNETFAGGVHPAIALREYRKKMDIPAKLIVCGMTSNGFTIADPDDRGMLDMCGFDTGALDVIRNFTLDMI
UniProt P11171, whole entry: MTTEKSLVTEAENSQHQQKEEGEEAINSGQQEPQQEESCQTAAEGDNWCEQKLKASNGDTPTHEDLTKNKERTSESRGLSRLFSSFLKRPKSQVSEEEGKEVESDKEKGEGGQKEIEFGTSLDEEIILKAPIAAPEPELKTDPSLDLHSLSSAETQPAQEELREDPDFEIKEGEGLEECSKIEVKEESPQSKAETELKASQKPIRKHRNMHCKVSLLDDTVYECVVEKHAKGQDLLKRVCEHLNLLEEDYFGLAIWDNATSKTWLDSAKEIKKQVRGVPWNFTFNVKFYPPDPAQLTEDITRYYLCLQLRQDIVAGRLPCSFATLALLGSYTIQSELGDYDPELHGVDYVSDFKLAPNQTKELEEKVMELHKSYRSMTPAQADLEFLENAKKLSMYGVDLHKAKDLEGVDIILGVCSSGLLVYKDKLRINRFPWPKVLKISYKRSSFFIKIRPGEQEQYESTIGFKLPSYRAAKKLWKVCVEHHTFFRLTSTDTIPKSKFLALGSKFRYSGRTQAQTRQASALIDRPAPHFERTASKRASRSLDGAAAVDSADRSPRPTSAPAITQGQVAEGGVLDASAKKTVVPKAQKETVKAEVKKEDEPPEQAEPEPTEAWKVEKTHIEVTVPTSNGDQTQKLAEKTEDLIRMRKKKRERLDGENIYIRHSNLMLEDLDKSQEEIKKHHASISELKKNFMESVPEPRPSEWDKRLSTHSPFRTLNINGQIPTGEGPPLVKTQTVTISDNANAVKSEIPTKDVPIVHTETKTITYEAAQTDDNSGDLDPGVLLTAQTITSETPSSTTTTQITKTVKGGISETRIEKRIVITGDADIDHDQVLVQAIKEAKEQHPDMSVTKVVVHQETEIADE
UniProt P12277: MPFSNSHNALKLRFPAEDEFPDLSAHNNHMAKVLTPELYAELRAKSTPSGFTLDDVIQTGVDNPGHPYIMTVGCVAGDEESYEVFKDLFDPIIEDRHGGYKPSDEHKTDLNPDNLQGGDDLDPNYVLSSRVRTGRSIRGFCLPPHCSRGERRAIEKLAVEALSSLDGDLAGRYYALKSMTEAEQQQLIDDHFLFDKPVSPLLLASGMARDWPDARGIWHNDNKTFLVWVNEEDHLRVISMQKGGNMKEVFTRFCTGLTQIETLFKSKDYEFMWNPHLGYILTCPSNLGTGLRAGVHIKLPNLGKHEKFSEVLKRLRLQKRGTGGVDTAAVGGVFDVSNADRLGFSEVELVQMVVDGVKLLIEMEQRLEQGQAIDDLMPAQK
UniProt P11802: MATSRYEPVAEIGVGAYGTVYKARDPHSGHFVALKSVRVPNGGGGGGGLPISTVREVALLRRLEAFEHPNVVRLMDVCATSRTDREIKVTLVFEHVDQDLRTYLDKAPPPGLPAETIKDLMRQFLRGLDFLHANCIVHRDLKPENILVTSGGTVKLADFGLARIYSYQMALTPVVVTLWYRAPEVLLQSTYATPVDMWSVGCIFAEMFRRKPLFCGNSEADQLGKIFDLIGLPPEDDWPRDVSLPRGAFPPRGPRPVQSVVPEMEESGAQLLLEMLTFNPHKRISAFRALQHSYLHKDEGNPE

Compound in this experiment: COC(=O)/C=C/c1ccccc1 [methyl cinnamate]
The experiment in a line: log2 ratio of iodoacetamide-alkyne labeling of the cysteine site, DMSO over compound (competition); higher = stronger covalent engagement of the cysteine by the compound, active = 1 or more. The conditions noted are these: 500 µM; treatment time 1 h; system: HEK293T cell lysate. The method in brief: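 HEK293T lysate (2 mg/mL) was treated with DMSO or electrophile (500 µM, 1 h, ambient temperature), then iodoacetamide alkyne (1 h), clicked to sCIP-TMT reagents, pooled, trypsin-digested overnight at 37 °C, streptavidin-enriched and acid-eluted. Peptides were run on Orbitrap Eclipse LC-MS/MS with FAIMS and quantified in FragPipe. The log2 competition ratio per cysteine is mean control-channel over mean compound-channel reporter intensity. Duplicate channels and three replicates were used, and cysteines quantified in only one replicate were excluded.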
On to HSPA8 C603 (UniProt P11142), for which the “log2 ratio of iodoacetamide-alkyne labeling” value (“log2 ratio” below) was inactive: 0.284. The figure for TXN C73 (UniProt P10599) is inactive: 0.237; for XRCC5 C339 (UniProt P13010) it is inactive: -0.0276.

Take UniProt P0DMV8_C574: the “log2 ratio” value was inactive: 0.154. The figure for ATP2A2 C997 (UniProt P16615) is inactive: 0.245; for PDHB C306 (UniProt P11177) it is inactive: -0.0516; for CAPN2 C82 (UniProt P17655) it is inactive: 0.193. Regarding ASNS C158 (UniProt P08243), the “log2 ratio” value is inactive: -0.074. The figure for NR2C1 C265 (UniProt P13056) is inactive: 0.0452. The figure for DLAT C586 (UniProt P10515) is inactive: -0.0135; for CBR1 C26 (UniProt P16152) it is inactive: -0.261.

With CBR1 C226 (UniProt P16152), the “log2 ratio” value was inactive: 0.469.

For the target CNP C111 (UniProt P09543), the “log2 ratio” value was inactive: -0.0499.

In the case of PDHA1 C261 (UniProt P08559), the “log2 ratio” value was inactive: -0.0503. The figure for GSPT1 C327 (UniProt P15170) is inactive: 0.165; for RPSA C163 (UniProt P08865) it is inactive: -0.506.

Consider GSTP1 C48 (UniProt P09211), for which the “log2 ratio” value is inactive: 0.014. The figure for PLS3 C621 (UniProt P13797) is inactive: 0.0225. The figure for U2AF1L5 C18 (UniProt P0DN76) is inactive: -0.244; for UniProt P14618_C358 it is inactive: -0.144.

With ACAA1 C177 (UniProt P09110), the “log2 ratio” value is inactive: 0.199.

Take SP1 C755 (UniProt P08047): the “log2 ratio” value was inactive: 0.00509. The figure for PRKCSH C500 (UniProt P14314) is inactive: 0.579; for HNRNPL C396 (UniProt P14866) it is inactive: 0.165. The figure for UniProt P10155_C71 is inactive: 0.205. With G6PD C294 (UniProt P11413), the “log2 ratio” value is inactive: -0.085. PRKAR2A C101 (UniProt P13861): the “log2 ratio” value is inactive: 0.313. For the target EPB41 C224 (UniProt P11171), the “log2 ratio” value is inactive: -0.0805. For UniProt P17812_C218, the “log2 ratio” value is inactive: -0.00243. The figure for U2AF1L5 C67 (UniProt P0DN76) is inactive: 0.00948. As for FAH C105 (UniProt P16930), the “log2 ratio” value was inactive: 0.202. The figure for SP1 C604 (UniProt P08047) is inactive: 0.353; for CKB C283 (UniProt P12277) it is inactive: 0.182; for ESD C56 (UniProt P10768) it is inactive: -0.225. The figure for SNRPC C25 (UniProt P09234) is inactive: 0.226; for HSP90AA1 C598 (UniProt P07900) it is inactive: -0.112.

Consider CDK4 C215 (UniProt P11802), for which the “log2 ratio” value is inactive: 0.157.

The values are drawn from the supplement of paper PMC11006884.
